These are yes or no findings as the source states them, for the method shown. In cells and extracts the contact can be indirect. Some entries that bind do so weakly or less than the wild type.

Protein sequences, listed by entry. Tags and fused reporters are not part of them.
UniProt Q5S007: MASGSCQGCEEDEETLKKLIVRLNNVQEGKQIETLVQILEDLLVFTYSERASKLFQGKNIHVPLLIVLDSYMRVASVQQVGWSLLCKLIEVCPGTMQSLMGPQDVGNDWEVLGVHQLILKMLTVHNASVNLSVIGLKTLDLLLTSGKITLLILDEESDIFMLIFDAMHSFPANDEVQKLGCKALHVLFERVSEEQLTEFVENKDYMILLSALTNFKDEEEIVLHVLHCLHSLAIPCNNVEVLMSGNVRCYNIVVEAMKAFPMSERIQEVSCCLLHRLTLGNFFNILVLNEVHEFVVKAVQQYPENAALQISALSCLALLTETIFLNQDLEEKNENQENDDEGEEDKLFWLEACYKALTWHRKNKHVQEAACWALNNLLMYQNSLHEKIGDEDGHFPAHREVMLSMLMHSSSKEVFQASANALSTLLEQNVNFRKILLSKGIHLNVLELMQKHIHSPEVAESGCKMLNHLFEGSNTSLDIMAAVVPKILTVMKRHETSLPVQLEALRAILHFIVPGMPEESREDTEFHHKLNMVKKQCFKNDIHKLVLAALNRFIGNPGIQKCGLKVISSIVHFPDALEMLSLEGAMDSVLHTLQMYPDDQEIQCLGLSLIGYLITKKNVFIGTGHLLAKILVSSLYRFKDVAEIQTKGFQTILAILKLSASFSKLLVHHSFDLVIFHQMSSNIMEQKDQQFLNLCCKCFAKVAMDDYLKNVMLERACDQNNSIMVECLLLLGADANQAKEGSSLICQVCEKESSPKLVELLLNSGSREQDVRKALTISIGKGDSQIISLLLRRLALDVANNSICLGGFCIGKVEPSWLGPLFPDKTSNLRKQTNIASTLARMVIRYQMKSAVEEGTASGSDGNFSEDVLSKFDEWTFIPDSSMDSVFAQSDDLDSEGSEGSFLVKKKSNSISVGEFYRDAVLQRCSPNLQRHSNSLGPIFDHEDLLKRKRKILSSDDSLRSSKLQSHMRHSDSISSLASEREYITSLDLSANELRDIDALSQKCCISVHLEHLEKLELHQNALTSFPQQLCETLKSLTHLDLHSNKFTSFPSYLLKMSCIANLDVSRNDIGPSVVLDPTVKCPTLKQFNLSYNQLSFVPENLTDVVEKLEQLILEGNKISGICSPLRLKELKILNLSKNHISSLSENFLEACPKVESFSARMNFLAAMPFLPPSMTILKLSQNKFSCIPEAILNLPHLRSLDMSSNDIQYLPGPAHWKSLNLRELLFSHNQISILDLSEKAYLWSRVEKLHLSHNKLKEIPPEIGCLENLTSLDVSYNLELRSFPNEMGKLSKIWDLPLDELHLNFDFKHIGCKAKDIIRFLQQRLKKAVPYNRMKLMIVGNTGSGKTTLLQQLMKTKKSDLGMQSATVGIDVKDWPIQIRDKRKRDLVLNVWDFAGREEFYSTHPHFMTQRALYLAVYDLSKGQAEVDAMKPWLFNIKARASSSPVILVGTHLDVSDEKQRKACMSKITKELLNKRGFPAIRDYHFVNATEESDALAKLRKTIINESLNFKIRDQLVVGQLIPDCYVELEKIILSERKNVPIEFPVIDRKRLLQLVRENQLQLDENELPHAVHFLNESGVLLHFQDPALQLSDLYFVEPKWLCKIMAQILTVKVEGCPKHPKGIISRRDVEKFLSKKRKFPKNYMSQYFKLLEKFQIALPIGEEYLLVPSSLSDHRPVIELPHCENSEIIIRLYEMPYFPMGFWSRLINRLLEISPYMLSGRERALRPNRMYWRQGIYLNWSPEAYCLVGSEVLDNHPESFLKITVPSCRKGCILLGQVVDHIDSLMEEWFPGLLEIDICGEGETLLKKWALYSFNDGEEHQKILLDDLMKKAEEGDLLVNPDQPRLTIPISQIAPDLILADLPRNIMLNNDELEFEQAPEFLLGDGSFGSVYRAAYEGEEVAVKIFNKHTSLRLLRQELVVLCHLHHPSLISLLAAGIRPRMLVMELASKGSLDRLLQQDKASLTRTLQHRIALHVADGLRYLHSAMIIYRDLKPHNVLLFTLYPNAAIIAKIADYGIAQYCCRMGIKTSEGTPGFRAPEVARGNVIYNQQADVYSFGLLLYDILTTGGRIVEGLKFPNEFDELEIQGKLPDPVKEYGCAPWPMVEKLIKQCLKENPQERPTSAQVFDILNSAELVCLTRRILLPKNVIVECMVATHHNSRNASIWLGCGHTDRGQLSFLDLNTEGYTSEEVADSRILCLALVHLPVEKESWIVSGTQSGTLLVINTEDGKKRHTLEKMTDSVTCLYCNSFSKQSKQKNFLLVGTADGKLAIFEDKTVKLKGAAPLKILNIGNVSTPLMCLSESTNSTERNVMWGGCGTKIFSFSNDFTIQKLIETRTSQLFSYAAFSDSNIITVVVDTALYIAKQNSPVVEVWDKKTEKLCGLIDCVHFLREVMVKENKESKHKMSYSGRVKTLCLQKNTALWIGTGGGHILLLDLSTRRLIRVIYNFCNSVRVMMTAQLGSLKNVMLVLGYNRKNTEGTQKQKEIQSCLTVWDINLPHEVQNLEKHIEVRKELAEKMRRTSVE

Assay [1] concerns the target p53 (human (endogenous in SH-SY5Y)) (UniProt P04637). The assay is described as follows: co-IP; lysates of differentiated SH-SY5Y cells, precleared, immunoprecipitated with anti-p53 or anti-LRRK2 (MJFF2) at 4 °C for 8 h, protein-A agarose for 24 h, Western blot; control IgG IP alongside.
Assay [2] concerns the target Leucine-rich repeat kinase 2 (LRRK2) (human (endogenous in SH-SY5Y)) (UniProt Q5S007). Described as above.

Turning to “Leucine-rich repeat kinase 2 (LRRK2) (from UniProt Q5S007 1-2527)”, the binding entry in assay [1] is on record as “binds”.

Regarding p53 (from UniProt P04637 1-393), the binding entry in assay [2] was “binds”.
